Data reported in patent US20240336653A1 (Shenzhen Turier Biotech Co., Ltd., priority 2020, published 2024).

Assays:
[1] = general procedure: Fmoc solid-phase peptide synthesis; Rink Amide MBHA; 1-hydroxybenzotriazole / N,N-diisopropyl carbodiimide; 1-hydroxybenzotriazole /; details: whole synthesis, scale 0.72 mmol
[2] = general procedure: Fmoc solid-phase peptide synthesis; Rink Amide MBHA (loading 0.36 mmol/g); 1-hydroxybenzotriazole / N,N-diisopropyl carbodiimide; 1-hydroxybenzotriazole /; details: whole synthesis, scale of the general procedure 0.72 mmol

## (PEG2-PEG2-γGlu-CO(CH2)18CO2H)-Val-Iva-Gly-Ser-Pro-Ser-Ala-Gln-Glu-Glu-Ala-Ser-Pro-Ala-NH2
[1]
  crude mass: 1.2 g
[2]
  final HPLC purity: 98.83%
